Results are given in words; binding and its absence hold for the method and conditions named. Some results given as binding are weak or reduced against the parent protein; the word gives no strength.
Biological target: Gal4 DNA-BD-Grb14 fusion (full length Grb14, GRB14/pAS2.1) (S. cerevisiae) (UniProt P04386+Q14449)
Assay: yeast two hybrid screen with Grb14 bait

Amino acid sequences for entries named in this document (tags omitted). A change or cut given only in a name is not applied to a line headed by its entry. Chains listed by the source or under a name are the forms on record and can include a tag or linker.
UniProt P04386: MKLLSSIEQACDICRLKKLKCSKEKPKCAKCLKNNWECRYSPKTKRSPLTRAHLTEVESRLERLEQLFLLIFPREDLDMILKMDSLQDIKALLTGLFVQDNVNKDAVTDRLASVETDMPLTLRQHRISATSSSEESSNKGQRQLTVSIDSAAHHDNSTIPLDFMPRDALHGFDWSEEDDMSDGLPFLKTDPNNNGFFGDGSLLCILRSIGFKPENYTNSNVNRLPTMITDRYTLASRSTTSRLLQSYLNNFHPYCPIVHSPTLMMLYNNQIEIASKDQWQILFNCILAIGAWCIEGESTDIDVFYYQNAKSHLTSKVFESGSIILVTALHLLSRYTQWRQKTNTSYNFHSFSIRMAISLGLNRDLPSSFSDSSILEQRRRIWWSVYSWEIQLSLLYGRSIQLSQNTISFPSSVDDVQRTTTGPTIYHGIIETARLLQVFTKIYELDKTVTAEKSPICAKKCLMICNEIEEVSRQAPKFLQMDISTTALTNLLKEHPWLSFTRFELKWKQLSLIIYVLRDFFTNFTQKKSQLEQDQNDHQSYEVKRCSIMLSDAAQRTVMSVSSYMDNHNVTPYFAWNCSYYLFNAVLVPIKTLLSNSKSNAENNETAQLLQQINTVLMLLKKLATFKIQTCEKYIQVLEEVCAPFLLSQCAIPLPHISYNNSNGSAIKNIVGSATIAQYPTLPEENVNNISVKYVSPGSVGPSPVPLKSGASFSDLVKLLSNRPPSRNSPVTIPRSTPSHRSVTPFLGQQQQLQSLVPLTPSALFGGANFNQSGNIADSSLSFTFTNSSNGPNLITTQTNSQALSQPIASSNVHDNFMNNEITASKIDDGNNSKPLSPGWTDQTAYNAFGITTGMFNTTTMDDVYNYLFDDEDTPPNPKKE
UniProt Q14449: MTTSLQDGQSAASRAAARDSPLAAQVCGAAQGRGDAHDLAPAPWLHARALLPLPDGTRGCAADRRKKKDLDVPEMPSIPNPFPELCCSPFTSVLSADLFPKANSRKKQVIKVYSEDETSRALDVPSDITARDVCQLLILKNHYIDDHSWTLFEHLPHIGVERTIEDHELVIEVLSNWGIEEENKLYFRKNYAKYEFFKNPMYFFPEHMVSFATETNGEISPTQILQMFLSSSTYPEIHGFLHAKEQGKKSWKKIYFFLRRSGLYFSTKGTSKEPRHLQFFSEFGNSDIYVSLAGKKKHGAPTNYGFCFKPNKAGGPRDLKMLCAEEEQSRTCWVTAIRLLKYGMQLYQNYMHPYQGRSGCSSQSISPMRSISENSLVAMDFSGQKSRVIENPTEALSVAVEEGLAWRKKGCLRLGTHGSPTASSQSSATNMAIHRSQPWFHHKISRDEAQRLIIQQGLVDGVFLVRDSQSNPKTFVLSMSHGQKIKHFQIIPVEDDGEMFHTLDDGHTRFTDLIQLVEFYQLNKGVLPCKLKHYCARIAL
Nedd4 partial cDNA clone in pACT2 (CaLB domain together with the first 22 amino acids of the first WW domain) (P46934, form named): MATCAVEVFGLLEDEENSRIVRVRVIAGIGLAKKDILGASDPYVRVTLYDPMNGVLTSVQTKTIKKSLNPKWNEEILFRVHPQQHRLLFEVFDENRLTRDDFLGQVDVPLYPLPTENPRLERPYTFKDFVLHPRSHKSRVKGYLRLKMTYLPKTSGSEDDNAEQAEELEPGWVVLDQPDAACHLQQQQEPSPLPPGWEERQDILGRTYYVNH

With “Nedd4 partial cDNA clone in pACT2 (CaLB domain together with the first 22 amino acids of the first WW domain) (from UniProt P46934 1-212)” the binding was “binds”.
